This passage reports binding signal results from paper PMC7819943, “Rice protein-binding microarrays: a tool to detect cis-acting elements near promoter regions in rice”.

The chains behind the UniProt entries cited, without tags or fusion partners.
UniProt Q0JBA9, entry or part of it: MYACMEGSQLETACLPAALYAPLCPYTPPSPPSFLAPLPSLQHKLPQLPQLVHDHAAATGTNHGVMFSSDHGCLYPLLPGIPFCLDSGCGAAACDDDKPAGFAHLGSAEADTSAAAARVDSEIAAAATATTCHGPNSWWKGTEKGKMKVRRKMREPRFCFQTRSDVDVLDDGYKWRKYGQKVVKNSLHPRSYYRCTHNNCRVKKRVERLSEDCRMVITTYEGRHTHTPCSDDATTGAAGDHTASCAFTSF

Some of the results follow.

The target of this assay is OsWRKY34 (Oryza sativa, UniProt Q0JBA9 1-250). Briefly: protein-binding microarray (RPBM); PBS, 2% BSA, 51.3 ng/ul salmon testes DNA, 50 uM zinc acetate, 200 nM TF, 25 C, 1 h; high values mean tight binding. The note with it: protein: recombinant; tags: N-terminal polyhistidine and DsRed monomer fusion (pET32a); label: CyDye5-dUTP incorporated in the synthesized complementary strand; 3' TTTTT single-stranded linker to array surface; dsDNA, one strand shown. In a few lines: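 Binding signal is defined as the fluorescence intensity of each feature in arbitrary units, read on an Axon 4000B scanner. Transcription factors with N-terminal polyhistidine and DsRed fusions came from E. coli BL21-CodonPlus and were purified on Ni–NTA. They were incubated at 200 nM for 1 h at 25 °C on a custom Agilent array that had been made double-stranded with Cy5-dUTP, with 50 µM zinc acetate present, and the array was washed.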
With “CTCTCTCCGTGCAGTCATGATTTTCCGTACCTAACTTTTACGGAGTCACCTAGTGCAG”, the binding signal was 9610 fluorescence intensity (a.u.).
As for “AATCGCACCCACCTGCCAAGTTCTTGTACCGCCAACGCAACGGAGTCACCTAGTGCAG”, the binding signal was 8560 fluorescence intensity (a.u.).
The figure for “TGAGCCATGTTCCCGATCCACGGCTTACCTAACCTCGCTTCGGAGTCACCTAGTGCAG” is 8040 fluorescence intensity (a.u.).
With “GCCGCCGCCCTCCCCAACTCCGGCGACGACTATTCCCAAGCGGAGTCACCTAGTGCAG” the figure was 8540 fluorescence intensity (a.u.).
The figure for “CCACCACACGTCCGGAAAGTCTTTTTAGCACCTAGGCTGCCGGAGTCACCTAGTGCAG” is 8430 fluorescence intensity (a.u.); for “CGGTCAAACATGTGCTAAAAAGTCAACGGTGTCAAATATTCGGAGTCACCTAGTGCAG” it is 11400 fluorescence intensity (a.u.).
Take “ACGCCCCGGATCTGAGAGAGTTGAGGTACATAGTTTTTTCCGGAGTCACCTAGTGCAG”: the binding signal is 8330 fluorescence intensity (a.u.).
With “TTTTTTTCCCACTATGTTTCCTGTTAAATGGATAGCACTACGGAGTCACCTAGTGCAG” the figure was 8250 fluorescence intensity (a.u.).
“AGCTCCGCCACCGCTTCATCTCGCACCCGCACCGCGCGCTCGGAGTCACCTAGTGCAG”: the binding signal was 9900 fluorescence intensity (a.u.).
With “GCTCCGGCTCCACCCGCCGGCGCCGCTGCTCCTGCCGCGGCGGAGTCACCTAGTGCAG” the figure was 9760 fluorescence intensity (a.u.).
With “GTATACTGGTAGACACAGACTTTACACCGATTTTTTTCCTCGGAGTCACCTAGTGCAG”, the binding signal was 8560 fluorescence intensity (a.u.).
With “TGCCATACATATATAGTCGTAGTTCTTTTCTTTTTTTTAACGGAGTCACCTAGTGCAG” the figure was 10900 fluorescence intensity (a.u.); with “CCACCCGTTTATTGCATGTCATCTAAATGTTTTATGAAAACGGAGTCACCTAGTGCAG”, 10400 fluorescence intensity (a.u.).
The figure for “ATCTTTCCTCTTTTTTTGTCTTTACAGAATGGCCATGTGGCGGAGTCACCTAGTGCAG” is 8240 fluorescence intensity (a.u.).
As for “TCTTTCATACGGAATTCCTTTTCATTATTGGATGCCAGCTCGGAGTCACCTAGTGCAG”, the binding signal is 9330 fluorescence intensity (a.u.).
Turning to “GTCTAAGGTTGTTTGAAAATTTCAAAAATTTAAAGTTTTTCGGAGTCACCTAGTGCAG”, the binding signal was 8100 fluorescence intensity (a.u.).
The figure for “TGTGGCTGGGGTGGGAGTGGGAGCAGCCATAGATTTCCTCCGGAGTCACCTAGTGCAG” is 8930 fluorescence intensity (a.u.).
The figure for “TGGTTTGCGCCGCCCGTCCGCCGCCGCCGGCGGCCGTACTCGGAGTCACCTAGTGCAG” is 9880 fluorescence intensity (a.u.); for “GGGGATGGCGGCGGCCTCGGGAGGGGATGACGGTGGTCTCCGGAGTCACCTAGTGCAG” it is 9080 fluorescence intensity (a.u.); for “CTAATTGTTTTTTTAAATAGTGTTTTGTTTTATTGAAAACCGGAGTCACCTAGTGCAG” it is 9040 fluorescence intensity (a.u.).
The figure for “GTGGGCGGTGGGCAGCAAGAGAGGAGTTGGACAACGGTGACGGAGTCACCTAGTGCAG” is 9720 fluorescence intensity (a.u.); for “CATCTTCGTGCGAGTTATTCTCATAGCCAATTTTCTCCTTCGGAGTCACCTAGTGCAG” it is 8160 fluorescence intensity (a.u.).
Consider “AGTCATCTTTTTGCTTATGCTTATACTTATCAGCCAAAATCGGAGTCACCTAGTGCAG”, for which the binding signal is 8940 fluorescence intensity (a.u.).
The figure for “GAGTTGTTTTTCCCCTCTGAATTTTCTTGGTTTGGATTTCCGGAGTCACCTAGTGCAG” is 8080 fluorescence intensity (a.u.); for “TCTCCTTCCCCGCCGCCGCCGCTCGCCGCCCGCCCGCCCGCGGAGTCACCTAGTGCAG” it is 8440 fluorescence intensity (a.u.).
The figure for “TTTACAAACTTTCAACTTGTCATCACATCAAATCTTTCATCGGAGTCACCTAGTGCAG” is 8940 fluorescence intensity (a.u.).
The figure for “TGCAGCCCCAGTAATGCTCTCTCAACCATGATTTGCCGCTCGGAGTCACCTAGTGCAG” is 11400 fluorescence intensity (a.u.); for “CCGCCATTCCCGATCAAATCCTCTCCTCGATCTCTCCTGCCGGAGTCACCTAGTGCAG” it is 11800 fluorescence intensity (a.u.).
On to “TCGCCGCCACCAACATCACGCTCTTCCACCTCGACGTCGGCGGAGTCACCTAGTGCAG”, for which the binding signal is 8600 fluorescence intensity (a.u.).
With “GTGTTGTCTTGTTTACCAGATGCGCTGCAATCTGCAGTGACGGAGTCACCTAGTGCAG” the figure was 8090 fluorescence intensity (a.u.); with “ACAATAGCGTTGCATAGACCCATCCGTCGCTTCGCTTTCGCGGAGTCACCTAGTGCAG”, 8400 fluorescence intensity (a.u.).
With “AGTCTAAGTGGACTTTTTCCACCATTGTTTGCAAGTCTAGCGGAGTCACCTAGTGCAG”, the binding signal is 8260 fluorescence intensity (a.u.).
In the case of “CACTGCTTTCACTGGAGACCAAAACTGGCTCTCTTTCACACGGAGTCACCTAGTGCAG”, the binding signal was 9580 fluorescence intensity (a.u.).
With “GGGAGGGAGGGTGGCTGTAGTGTGCTAATCACAAATAATTCGGAGTCACCTAGTGCAG”, the binding signal was 20500 fluorescence intensity (a.u.).
With “TTTCTTCCGCCGCATCCACGCTTGCTTCGCGAACGCCACACGGAGTCACCTAGTGCAG” the figure was 9860 fluorescence intensity (a.u.); with “TTCCTGTGTTTTGCAATCCGCTGTTTTACACTTACATTCCCGGAGTCACCTAGTGCAG”, 17300 fluorescence intensity (a.u.).
With “ATCGCGCCCGCCGTCGACGACCCACGCAAGCACGCACTCGCGGAGTCACCTAGTGCAG” the figure was 8830 fluorescence intensity (a.u.); with “ATTATTTTTGTTTCACTGATTCACCTGTTGCATATGTAATCGGAGTCACCTAGTGCAG”, 8560 fluorescence intensity (a.u.); with “CTTGGGCCGATGCATTATTTATACTAGTTTCATGCCCGCGCGGAGTCACCTAGTGCAG”, 8270 fluorescence intensity (a.u.).
“TTGGGTTGGGTTGGTGAGGTGGGGAGATGGTTTGGTGAGGCGGAGTCACCTAGTGCAG”: the binding signal is 17300 fluorescence intensity (a.u.).
The figure for “CCTCGAGGGATTAGAATCCACTCCCATTCTATACTTCTATCGGAGTCACCTAGTGCAG” is 8280 fluorescence intensity (a.u.).
With “CAACGACTACGGCCTGGTTTAGTTCCCATAAATTTTTCCCCGGAGTCACCTAGTGCAG” the figure was 10600 fluorescence intensity (a.u.).
